PubChem BioAssay AID1259308 | NCATS | 2017
The deposit covers about 59,000 reagents; below is an unselected part. Over the whole deposit, about 1,510 (2.6%) were called active. 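Calls use total luciferase alone and ignore viability, so some active siRNAs may act by altering cell number.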 The numbers tell different reagents against one gene apart. Not all columns of the deposit are shown. No sequences are given here.

Screen: 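Knock-downs that increase output of a recombinant reporter protein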 (primary screen)
Cells: human HEK293 embryonic kidney cells stably expressing firefly luciferase (HEK-CMV-Luc2-Hygro)
Reagent: single siRNA against human genes, 0.8 pmol siRNA per well
Time to read-out: 72 h
Detection: 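Reporter luminescence and viable-cell signal on separate replicate plates, given as percent of non-targeting control and median/MAD z-scores, plus per-cell luciferase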
Direction: total luciferase, z-score and total luciferase, % of control: higher = more reporter protein produced
Active means: 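An siRNA counts as active if its total luciferase robust z-score exceeds 3; genes with two or more such siRNAs out of three were retested with fresh siRNAs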
Calls: active = raised luciferase; inactive = no rise

PRMT2IP #1 | total luciferase, z-score = 1.6; total luciferase, % of control = 114; activity call = inactive
PRMT2IP #2 | total luciferase, z-score = -1.65; total luciferase, % of control = 49; activity call = inactive
PRMT2IP #3 | total luciferase, z-score = 1.51; total luciferase, % of control = 112; activity call = inactive
NDUFS4 #1 | total luciferase, z-score = -0.76; total luciferase, % of control = 66.8; activity call = inactive
NDUFS4 #2 | total luciferase, z-score = -0.937; total luciferase, % of control = 63.3; activity call = inactive
NDUFS4 #3 | total luciferase, z-score = -0.0522; total luciferase, % of control = 80.8; activity call = inactive
CIMIP1 #1 | total luciferase, z-score = -0.306; total luciferase, % of control = 75.8; activity call = inactive
CIMIP1 #2 | total luciferase, z-score = -0.139; total luciferase, % of control = 79.1; activity call = inactive
CIMIP1 #3 | total luciferase, z-score = 1.83; total luciferase, % of control = 118; activity call = inactive
BAZ1B #1 | total luciferase, z-score = -0.682; total luciferase, % of control = 68.3; activity call = inactive
BAZ1B #2 | total luciferase, z-score = 0.138; total luciferase, % of control = 84.6; activity call = inactive
BAZ1B #3 | total luciferase, z-score = 1.95; total luciferase, % of control = 121; activity call = inactive
FGD1 #1 | total luciferase, z-score = -1.1; total luciferase, % of control = 59.9; activity call = inactive
FGD1 #2 | total luciferase, z-score = -0.637; total luciferase, % of control = 69.2; activity call = inactive
FGD1 #3 | total luciferase, z-score = -0.314; total luciferase, % of control = 75.6; activity call = inactive

Next part; the last 3 above are carried over.
FGD1 #1 | total luciferase, z-score = -1.1; total luciferase, % of control = 59.9; activity call = inactive
FGD1 #2 | total luciferase, z-score = -0.637; total luciferase, % of control = 69.2; activity call = inactive
FGD1 #3 | total luciferase, z-score = -0.314; total luciferase, % of control = 75.6; activity call = inactive
RCOR3 #1 | total luciferase, z-score = -0.937; total luciferase, % of control = 63.2; activity call = inactive
RCOR3 #2 | total luciferase, z-score = -1.4; total luciferase, % of control = 54; activity call = inactive
RCOR3 #3 | total luciferase, z-score = 2.07; total luciferase, % of control = 123; activity call = inactive
TMIGD1 #1 | total luciferase, z-score = -0.705; total luciferase, % of control = 67.9; activity call = inactive
TMIGD1 #2 | total luciferase, z-score = 0.868; total luciferase, % of control = 99.2; activity call = inactive
TMIGD1 #3 | total luciferase, z-score = -0.612; total luciferase, % of control = 69.7; activity call = inactive
TIMP4 #1 | total luciferase, z-score = 0.477; total luciferase, % of control = 91.4; activity call = inactive
TIMP4 #2 | total luciferase, z-score = -0.962; total luciferase, % of control = 62.7; activity call = inactive
TIMP4 #3 | total luciferase, z-score = -0.482; total luciferase, % of control = 72.3; activity call = inactive
PRKCB #1 | total luciferase, z-score = 0.515; total luciferase, % of control = 92.1; activity call = inactive
PRKCB #2 | total luciferase, z-score = 0.649; total luciferase, % of control = 94.8; activity call = inactive
PRKCB #3 | total luciferase, z-score = 0.807; total luciferase, % of control = 97.9; activity call = inactive
RPL31P7 #1 | total luciferase, z-score = -1.5; total luciferase, % of control = 52; activity call = inactive
RPL31P7 #2 | total luciferase, z-score = -0.116; total luciferase, % of control = 79.6; activity call = inactive
RPL31P7 #3 | total luciferase, z-score = -1.58; total luciferase, % of control = 50.5; activity call = inactive
PYDC1 #1 | total luciferase, z-score = -1.45; total luciferase, % of control = 53; activity call = inactive
PYDC1 #2 | total luciferase, z-score = 0.48; total luciferase, % of control = 91.4; activity call = inactive
PYDC1 #3 | total luciferase, z-score = 0.703; total luciferase, % of control = 95.9; activity call = inactive
